The results in this text go back to the supplement of paper PMC12823440, “Inhibitors supercharge kinase turnover through native proteolytic circuits” (Nature, 2025).

Protein sequences, listed by entry. Tags and fused reporters are not part of them.
UniProt P36888, whole entry: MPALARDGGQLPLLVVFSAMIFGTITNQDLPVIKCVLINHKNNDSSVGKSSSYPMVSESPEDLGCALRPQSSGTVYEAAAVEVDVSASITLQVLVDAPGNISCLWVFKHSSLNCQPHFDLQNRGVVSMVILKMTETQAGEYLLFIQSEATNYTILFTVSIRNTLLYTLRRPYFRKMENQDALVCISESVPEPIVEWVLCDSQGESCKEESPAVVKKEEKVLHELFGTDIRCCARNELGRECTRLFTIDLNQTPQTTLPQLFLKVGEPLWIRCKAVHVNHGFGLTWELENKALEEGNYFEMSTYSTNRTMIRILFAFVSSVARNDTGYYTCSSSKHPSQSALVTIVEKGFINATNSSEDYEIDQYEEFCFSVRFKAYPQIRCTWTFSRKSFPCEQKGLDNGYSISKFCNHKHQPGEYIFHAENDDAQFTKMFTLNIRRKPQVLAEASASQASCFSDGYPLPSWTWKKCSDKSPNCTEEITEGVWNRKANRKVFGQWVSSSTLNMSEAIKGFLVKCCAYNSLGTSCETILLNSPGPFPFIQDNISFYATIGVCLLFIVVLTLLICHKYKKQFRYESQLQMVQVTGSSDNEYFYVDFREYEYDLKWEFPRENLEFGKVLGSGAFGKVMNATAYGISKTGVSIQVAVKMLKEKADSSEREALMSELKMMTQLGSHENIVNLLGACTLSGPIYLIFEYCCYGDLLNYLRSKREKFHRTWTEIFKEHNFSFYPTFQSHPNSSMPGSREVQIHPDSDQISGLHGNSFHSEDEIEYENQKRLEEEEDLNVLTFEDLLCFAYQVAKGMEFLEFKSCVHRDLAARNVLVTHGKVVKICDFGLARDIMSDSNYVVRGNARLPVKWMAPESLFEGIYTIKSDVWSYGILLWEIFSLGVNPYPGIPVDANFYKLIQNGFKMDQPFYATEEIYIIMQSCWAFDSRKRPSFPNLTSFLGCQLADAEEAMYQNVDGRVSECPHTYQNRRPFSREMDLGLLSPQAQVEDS

Molecules are shown by their SMILES. Where a name gives a salt, the structure may show the parent alone. The list shows a part of the results. Hit calls seldom repeat between salt and free forms of one compound.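 Kinases were expressed as nanoluciferase fusions in K562 cells and luminescence was read every 4 h between 2 and 18 h as percent of control, DMSO set to 100% and a positive control to 0%. A time point counts as decreased when the signal drops significantly (2 sigma). The hit call is the authors' own, does not follow from the count of time points alone, and its rule is not shown.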

In the assay the target is FLT3 (UniProt P36888). In words: number of time points (of 5) at which kinase-Nluc abundance scored as decreased, DMSO-normalised (count); higher = more persistent destabilization. Conditions: K562; 2-18 h.
As to `CN1CCN(c2cc(-c3ccncc3)c(-c3ccc4ccccc4c3)nn2)CC1` (10 µM), the “number of time points” value worked out at 0.
Take `CC(O)(C#Cc1ccc2c(c1)N(c1nc(N)ncc1Cl)CC2)c1nccs1` (stereo not drawn) (2.5 µM): the “number of time points” value was found to be 0.
For the molecule `COc1ccc(Nc2ncc(C(F)(F)F)c(NC3CC3)n2)cc1OC` (10 µM), the “number of time points” value stood at 0.
Turning to `O=c1cc(N2CCOCC2)oc2c(-c3ccc4c(c3)OCCO4)csc12` (2.5 µM), the “number of time points” value worked out at 0.
Take `N[C@@H]1CCCN(c2c(/C=C3\SC(=O)NC3=O)cccc2-c2ccccc2)C1` (10 µM): the “number of time points” value amounted to 0.
For the molecule `N#Cc1ccc(-c2cnc3[nH]cc(NC(=O)c4cccnc4)c3c2)cc1` (10 µM), the “number of time points” value was found to be 0.
Take `COc1ccc(Br)cc1NC(=O)Nc1cccc2c1ccn2Cc1ccnc(N)c1` (2.5 µM): the “number of time points” value was determined as 0.
On to `COc1cc(N2CCOCC2)ccc1Nc1ncc(F)c(Nc2ccccc2NS(C)(=O)=O)n1` (10 µM), for which the “number of time points” value worked out at 0.
Turning to `COc1ccc(-c2cc(=O)c3c(OC)cc(OC)c(OC)c3o2)cc1` [6-Demethoxytangeretin] (10 µM), the “number of time points” value is 0.
`COc1cc2c(cc1O)C[C@H]1c3cc(O)c(OC)cc3CC[N@@+]1(C)C2` [Phellodendrine] (10 µM): the “number of time points” value was determined as 0.
As to `CO[C@H]1C[C@@H]2CC[C@@H](C)[C@@](O)(O2)C(=O)C(=O)N2CCCC[C@H]2C(=O)O[C@H]([C@H](C)C[C@@H]2CC[C@@H](OC(=O)C(C)(CO)CO)[C@H](OC)C2)CC(=O)[C@H](C)/C=C(\C)[C@@H](O)[C@@H](OC)C(=O)[C@H](C)C[C@H](C)/C=C/C=C/C=C/1C` [Temsirolimus] (2.5 µM), the “number of time points” value came to 0.
Consider `O=C(ON=C1c2ccccc2-c2nc3ccccc3nc21)c1ccco1` (2.5 µM), for which the “number of time points” value is 0.
Consider `COc1ccc(S(=O)(=O)Nc2cc(-c3c(O)ccc4ccccc34)c(O)c3ccccc23)cc1` (10 µM), for which the “number of time points” value was found to be 0.
Consider `Cc1cccc(COc2cccc(/C=C3\C(=O)NN(c4ccccc4)C3=O)c2)c1` (10 µM), for which the “number of time points” value came out at 0.
As for `CC(C)Oc1ccc(F)c(-c2cnc(N)c(C(=O)Nc3cnccc3N3CCC[C@@H](C(=O)O)C3)n2)c1` (2 µM), the “number of time points” value turned out to be 4.
With `COc1cc(F)ccc1-c1ncnc(Nc2cccc(C[S@](C)(=N)=O)c2)n1` [Atuveciclib] (2.5 µM) the figure was 3.
For `CC(C)n1ncnc1-c1cn2c(n1)-c1ccc(O[C@@H](C)C(N)=O)cc1OCC2` (10 µM), the “number of time points” value worked out at 0.
For `Cn1c(CNc2cccc(C(=O)NCc3ccccc3C(F)(F)F)c2)nnc1-c1ccncc1` (10 µM), the “number of time points” value worked out at 0.
Take `O=Nc1c(-c2c(O)[nH]c3cc(Br)ccc23)[nH]c2ccccc12` [GSK 3 Inhibitor IX] (2.5 µM): the “number of time points” value came to 4.
Take `Nc1ncc(C(=O)NC2CN(C(=O)C3CC3)C2)c2ccc(-c3cccc(F)c3)nc12` (2 µM): the “number of time points” value came out at 0.
Turning to `O=C(Nc1cc(Cl)cc2c1[nH]c1cnccc12)c1cccnc1` (10 µM), the “number of time points” value amounted to 0.
Regarding `c1ccc(Cn2c(-c3ccc(OC[C@H](C4CCNCC4)n4c(-c5ccccc5)nc5ccccc54)cc3)nc3ccccc32)cc1` [Deltarasin] (2.5 µM), the “number of time points” value came to 0.
With `COc1cc2ncnc(Nc3cccc(I)c3)c2cc1OC` (2.5 µM) the figure was 0; with `Clc1ccc(C(c2ccc(Cl)cc2)[n+]2ccn(CC(OCc3ccc(Cl)cc3Cl)c3ccc(Cl)cc3Cl)c2)cc1` (stereo not drawn) [Calmidazolium chloride] (2.5 µM), 0; with `O=C(Nc1cccnc1)c1cc(-c2ccnc(F)c2)ccc1OCc1ccccc1` (10 µM), 0.
With `c1nn(C2CCOCC2)cc1Nc1ncc2nnn(-c3ccc4cn[nH]c4c3)c2n1` (10 µM), the “number of time points” value was determined as 0.
For the molecule `COC(=O)[C@H](CCSC)NC(=O)c1ccc(NC[C@@H](N)CS)cc1-c1ccccc1` [FTI-277 (hydrochloride)] (10 µM), the “number of time points” value amounted to 0.
`Cc1cc(Nc2cc(N)ncn2)c(=O)n2c1C(=O)NC21CCCCC1` [Tomivosertib] (10 µM): the “number of time points” value is 0.
On to `CCc1c[nH]c2ncnc(N3CC[C@](N)(CNC(=O)c4ccc(F)cc4F)C3)c12` (10 µM), for which the “number of time points” value was found to be 0.
`Nc1ncnc2c1nc(Br)n2[C@@H]1O[C@@H]2COP(=O)(O)O[C@H]2[C@H]1O` [8-Bromo-cAMP sodium salt] (10 µM): the “number of time points” value came out at 0.
With `CC(C)n1c(=O)n(C)c2cnc3cc(F)c(-c4ccc(OCCCN5CCCCC5)nc4)cc3c21` (10 µM) the figure was 0; with `Cc1ccc(C)c(OCCn2cc(C(=O)O)c3ccccc32)c1` (10 µM), 0.
`COCCOc1ccc2c(c1)ncn2-c1ccc2cccc(N3CCC(N)CC3)c2n1` (10 µM): the “number of time points” value was determined as 3.
